The text below walks through data of article PMC6911014.

The test addresses T1, Elba3 (Drosophila melanogaster (endogenous in embryos)) (UniProt Q9VR19).
T1 sequence: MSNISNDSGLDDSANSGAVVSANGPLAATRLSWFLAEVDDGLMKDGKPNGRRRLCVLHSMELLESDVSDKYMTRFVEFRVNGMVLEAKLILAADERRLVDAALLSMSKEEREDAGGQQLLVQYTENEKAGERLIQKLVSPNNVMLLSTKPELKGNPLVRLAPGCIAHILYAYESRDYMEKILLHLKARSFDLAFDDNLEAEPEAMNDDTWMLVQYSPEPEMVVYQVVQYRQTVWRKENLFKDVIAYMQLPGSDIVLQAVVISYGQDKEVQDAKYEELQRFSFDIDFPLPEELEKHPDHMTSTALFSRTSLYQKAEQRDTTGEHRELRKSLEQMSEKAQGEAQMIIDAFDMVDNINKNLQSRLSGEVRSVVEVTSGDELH
Description: co-IP; sequential depletion co-immunoprecipitation from 2-4 h embryo extracts (20 mM Tris pH 8.0, 150 mM NaCl, 10 mM MgCl2, 2 mM EDTA, 10% glycerol, 0.5% NP-40, 1 mM DTT); first round with rabbit anti-Elba1, anti-Elba3 or IgG, second round from the supernatant; western blot.

Results are given in words; binding and its absence hold for the method and conditions named. Binding seen in cells or lysates may run through a third protein. Some results given as binding are weak or reduced against the parent protein; the word gives no strength.

B1: Elba1 (protein, UniProt Q9VR17 1-363)
chain: MINRRQRLEFALTLLPYDPETVQLSETQKKVEAIIARLRTDDSFTEEESDDCKVRRIQDANEFADSAMRHIEMSDSGKLSTLETLTLAAEKLLRTQRSPDQDFDDMVQDVEYSQLMRNTIQAVNEARLKLLQQWERSKRKALDLLTIEIEKVQEMDQEPEHKQSHEQDQDQEQSSEPFNAFRDGADEHNTSTPKTNDEDLGLDDDDEDYVPGGEETMGNKRKRIKKPVTSTPNAKRRCPGFEFDLDGESPMVTIGPNGTEVSRISLSAINWDMTGPSITRKLLCEIFDRDTLAHHTLSGKPSPAFRDCARPSKQQLDPLKVADLVYLMTNSLDMTPREVRTAITTKCADENKMLRSRMQRKSK
Regarding B1, the binding result is listed as “binds”.
